Data from paper PMC11426234.
No constants are given. Whether binding was seen depends on the method and setting. Binding seen in cells or lysates may run through a third protein. Some results given as binding are weak or reduced against the parent protein; the word gives no strength.

Amino acid sequences for entries named in this document (tags omitted). Residues count along the entry.
UniProt P29317, residues 24-976: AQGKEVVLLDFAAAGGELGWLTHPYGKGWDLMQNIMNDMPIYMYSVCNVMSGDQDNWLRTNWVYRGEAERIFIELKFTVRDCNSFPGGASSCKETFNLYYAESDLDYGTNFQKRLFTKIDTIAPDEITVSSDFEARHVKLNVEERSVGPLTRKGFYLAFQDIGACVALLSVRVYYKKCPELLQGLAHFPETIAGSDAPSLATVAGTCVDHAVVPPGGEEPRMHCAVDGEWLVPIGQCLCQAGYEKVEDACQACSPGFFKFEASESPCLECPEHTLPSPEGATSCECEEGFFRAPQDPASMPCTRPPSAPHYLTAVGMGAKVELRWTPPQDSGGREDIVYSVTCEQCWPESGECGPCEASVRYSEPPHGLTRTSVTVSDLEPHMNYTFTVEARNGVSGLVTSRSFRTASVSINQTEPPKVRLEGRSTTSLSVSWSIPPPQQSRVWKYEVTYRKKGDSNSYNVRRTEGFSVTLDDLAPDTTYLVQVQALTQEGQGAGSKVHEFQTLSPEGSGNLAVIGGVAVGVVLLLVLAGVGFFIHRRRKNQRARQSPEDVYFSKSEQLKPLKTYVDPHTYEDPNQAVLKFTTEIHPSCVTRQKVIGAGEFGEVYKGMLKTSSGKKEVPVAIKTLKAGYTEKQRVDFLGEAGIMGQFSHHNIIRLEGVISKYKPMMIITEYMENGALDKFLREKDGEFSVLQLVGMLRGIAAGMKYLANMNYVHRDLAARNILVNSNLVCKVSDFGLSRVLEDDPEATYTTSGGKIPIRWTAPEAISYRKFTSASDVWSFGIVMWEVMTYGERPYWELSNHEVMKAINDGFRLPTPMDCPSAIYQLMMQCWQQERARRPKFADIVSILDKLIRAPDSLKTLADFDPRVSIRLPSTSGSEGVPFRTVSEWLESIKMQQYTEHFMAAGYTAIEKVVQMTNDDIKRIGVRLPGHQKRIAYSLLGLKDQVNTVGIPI

Assays:
[1] = target: T1, exogenous TGFBI expressed in 293T (human) (UniProt Q15582); experiment: co-IP; exogenous TGFBI and EphA2 expressed in 293T cells; IP and immunoblot
T1 sequence: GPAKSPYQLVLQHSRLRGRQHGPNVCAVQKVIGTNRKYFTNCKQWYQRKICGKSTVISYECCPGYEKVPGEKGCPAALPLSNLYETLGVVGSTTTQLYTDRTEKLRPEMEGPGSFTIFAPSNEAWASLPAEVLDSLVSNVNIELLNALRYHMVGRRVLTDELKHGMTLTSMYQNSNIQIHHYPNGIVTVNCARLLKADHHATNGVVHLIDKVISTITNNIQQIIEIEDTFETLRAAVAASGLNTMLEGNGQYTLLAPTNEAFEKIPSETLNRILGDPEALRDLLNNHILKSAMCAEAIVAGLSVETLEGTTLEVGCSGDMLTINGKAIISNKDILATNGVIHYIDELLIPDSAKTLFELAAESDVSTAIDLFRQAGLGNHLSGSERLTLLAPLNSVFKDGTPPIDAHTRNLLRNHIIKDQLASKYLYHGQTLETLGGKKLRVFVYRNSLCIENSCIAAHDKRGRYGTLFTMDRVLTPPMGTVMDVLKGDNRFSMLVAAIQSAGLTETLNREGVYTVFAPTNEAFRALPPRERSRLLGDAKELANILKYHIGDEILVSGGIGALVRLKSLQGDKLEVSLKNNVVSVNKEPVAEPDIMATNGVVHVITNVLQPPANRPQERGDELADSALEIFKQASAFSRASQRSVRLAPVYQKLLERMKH

[2] = target: T2, transforming growth factor beta-induced protein (TGFBI), endogenous in GSCs (human (endogenous in T3691 GSCs)) (UniProt Q15582); experiment: co-IP; endogenous proteins, GSC lysate (T3691, hypoxia) in Pierce IP Lysis Buffer; primary antibody or IgG control, protein A/G agarose overnight at 4°C; immunoblot
T2 sequence: T1 sequence

binding [1]	binding [2]	Substance
binds		exogenous EphA2 expressed in 293T (from UniProt P29317 24-976) (receptor)
	binds	EphA2, endogenous in GSCs (from UniProt P29317 24-976) (receptor)
